Experimental data taken from PubChem BioAssay AID1671190 (National Center for Advancing Translational Sciences (NCATS), 2021).
Hit rate of the full screen: of about 580,000 compounds, about 6,100 (1.1%) were called active. The inconclusive results got no clear call from the source; some entries with a clear call stand among them for comparison. Calls follow the shape of the dose curve; as a rule, active = well fitted inhibition curve with a large enough effect; inconclusive = small, poorly fitted or top-dose-only effect, or another doubt; inactive = no such curve, though single readings can be large or run the other way. Where the call is inconclusive, the potency comes from a doubtful curve fit.

By UniProt entry, the sequences of proteins in these tests, tags left out. Where a name states a change or a piece, a line headed by the entry shows the natural chain unless it says otherwise.
UniProt P18054: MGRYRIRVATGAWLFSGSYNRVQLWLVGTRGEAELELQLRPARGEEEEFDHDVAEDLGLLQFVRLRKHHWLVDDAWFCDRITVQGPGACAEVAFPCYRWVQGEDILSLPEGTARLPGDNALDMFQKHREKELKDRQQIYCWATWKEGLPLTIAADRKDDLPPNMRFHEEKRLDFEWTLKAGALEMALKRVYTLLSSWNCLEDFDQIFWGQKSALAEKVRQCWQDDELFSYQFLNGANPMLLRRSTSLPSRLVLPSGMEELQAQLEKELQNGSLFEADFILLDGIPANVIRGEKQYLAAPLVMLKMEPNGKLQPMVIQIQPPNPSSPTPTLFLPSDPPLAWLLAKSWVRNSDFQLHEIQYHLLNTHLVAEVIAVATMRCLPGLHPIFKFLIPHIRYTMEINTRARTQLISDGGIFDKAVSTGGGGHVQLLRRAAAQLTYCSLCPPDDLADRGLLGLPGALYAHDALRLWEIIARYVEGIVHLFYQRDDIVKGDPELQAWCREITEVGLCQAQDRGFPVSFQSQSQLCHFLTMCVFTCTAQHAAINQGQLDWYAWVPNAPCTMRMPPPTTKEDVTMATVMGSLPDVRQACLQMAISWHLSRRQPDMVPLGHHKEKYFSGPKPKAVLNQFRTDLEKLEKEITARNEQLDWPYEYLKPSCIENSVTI

biological target: Polyunsaturated fatty acid lipoxygenase ALOX12 (Homo sapiens) (UniProt P18054); assay: Primary qHTS assay for inhibitors of human arachidonate 12S-lipoxygenase (ALOX12): Round 2; conditions: purified 12hLO, xylenol orange hydroperoxide absorbance; activity change, negative = inhibition: at 108 µM (top of the series) unless noted
In short: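 Hydroperoxide product was detected by ferrous iron/xylenol orange as the 573 to 405 nm absorbance ratio. Arachidonic acid at 40 uM (final) was turned over for 30 min at room temperature by 150 nM human 12hLO, pH 7.0 Hepes buffer, after 15 min compound preincubation.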
% is scaled to controls: 0 for no effect and ±100 for the full control effect; potency is read from the fitted curve at half-maximal effect.

| SMILES | Potency | activity change, negative = inhibition |
| --- | --- | --- |
| CN1CCN(c2ccc(S(=O)(=O)N3CCCCC3)cc2NC(=O)/C=C/c2ccc(Cl)c([N+](=O)[O-])c2)CC1 | inconclusive: 112 µM [inhibitor, partial curve, poor fit] | – |
| NC(=S)N/N=C/c1coc2ccc(Cl)cc2c1=O | inconclusive: 4.47 µM [inhibitor, full curve] | – |
| COc1ccc(N2CCN(c3nc4cc(C)ccc4cc3C=O)CC2)cc1 | – | inactive: -16.8% |
| C=CCN1C(=O)c2ccc(C(=O)N(C)CC(=O)Nc3c(C)cccc3C)cc2C1=O | inconclusive: 39.8 µM [inhibitor, partial curve, poor fit] | – |
| Cc1cccc(N2CCN(c3ccc(NC(=O)c4ccccc4)cc3C(=O)O)CC2C)c1 (configuration not stated) | inconclusive: 44.7 µM [inhibitor, partial curve, poor fit] | – |
| CC(C)(C)c1ccc(C(=O)NC(Nc2ccc3ccccc3c2)C(Cl)(Cl)Cl)cc1 (configuration not stated) | inconclusive: 44.7 µM [inhibitor, partial curve, poor fit] | – |
| COc1ccccc1/C=C1\SC(=O)N(CCC(=O)NCCCn2ccnc2)C1=O | – | inactive: 0% |
| CCOc1ccc(NC(=S)Nc2ccc(F)cc2)cc1 | inconclusive: 31.6 µM [inhibitor, partial curve, poor fit] | – |
| CC(C)c1noc(CN2CCN(c3cccc(F)c3C#N)CC2)n1 | – | inactive: -22.3% |
| CCOc1ccccc1C(=O)Nc1ccc2nc3c(c(Nc4ccc(OC)c(OC)c4)c2c1)CCCC3 | inconclusive: 79.4 µM [inhibitor, partial curve, poor fit] | – |
| Cc1ccc(Cc2cnc(N)s2)o1 | inconclusive: 25.1 µM [inhibitor, partial curve] | – |
| O=S(=O)(N1CCCCC1)N1CCOC(Cc2ccccc2Cl)C1 (configuration not stated) | inconclusive: 35.5 µM [inhibitor, full curve, poor fit] | – |
| CC(C)Oc1ccc(CN2C[C@@H](CO)[C@H](c3ccncc3)C2)cc1 | – | inactive: 52% |
| CCNC(=O)NC1(CCOC)CCN(C(=O)Cc2cccc(OC)c2)CC1 | – | inactive: 12.4% |
| CN1CCC/C(=C\Cl)C1=O | – | inactive: -2.67% |
| O=C(C1CC1)N(Cc1nc2ccccc2c(=O)[nH]1)Cc1cccs1 | – | inactive: 0% |
| Cc1ccc(NC2c3ccccc3-c3ccccc32)cc1 | – | inactive: 101% |
| N#CC1=C(c2ccc(-c3ccccc3)cc2)COC1=O | active: 50.1 µM | – |
| CN(C)C(=O)c1ccc(-c2ccc3ncnc(Nc4ccc(F)cc4)c3c2)cc1 | inconclusive: 7.94 µM [inhibitor, full curve, poor fit] | – |
| Cc1cc(Nc2cccc(Cl)c2)nc2ccc(NC(=O)c3cccc(N(C)C)c3)cc12 | – | inactive: -17.2% |
| Cc1ccc(-c2nnc3ccc(SC(C)C(=O)O)nn23)cc1 (configuration not stated) | active: 31.6 µM | – |
| CCN(Cc1ccco1)C(=O)c1cc2ccc(C(C)C)cc2[nH]1 | inconclusive: 56.2 µM [inhibitor, single point] | – |
| Cc1cc(NC(=O)c2cc(-c3cccc(Cl)c3)on2)no1 | inconclusive: 5.01 µM [inhibitor, full curve, poor fit] | – |

3 entries from above, sorted by molar mass, smallest number first:

| SMILES | Potency | activity change, negative = inhibition |
| --- | --- | --- |
| NC(=S)N/N=C/c1coc2ccc(Cl)cc2c1=O | inconclusive: 4.47 µM [inhibitor, full curve] | – |
| O=C(C1CC1)N(Cc1nc2ccccc2c(=O)[nH]1)Cc1cccs1 | – | inactive: 0% |
| CC(C)(C)c1ccc(C(=O)NC(Nc2ccc3ccccc3c2)C(Cl)(Cl)Cl)cc1 (configuration not stated) | inconclusive: 44.7 µM [inhibitor, partial curve, poor fit] | – |

The list goes on.

| SMILES | Potency | activity change, negative = inhibition |
| --- | --- | --- |
| c1cncc(CNCCCN2CCCCC2)c1 | inconclusive: 3.98 µM [inhibitor, full curve, poor fit] | – |
| CCCCN(C)C(=O)C1CCN(CC(C)c2ccccc2)CC1 (configuration not stated) | active: 1 µM | – |
| CN(C)c1ccc2ncc(Nc3ccccc3F)n2n1 | inconclusive: 50.1 µM [inhibitor, partial curve, poor fit] | – |
| O=C(O)c1ccc2nccnc2c1 | inconclusive: 2 µM [inhibitor, full curve, poor fit] | – |
| Cc1ccc2nc(-c3ccccc3)cc(C(=O)N3CCN(c4ccccc4O)CC3)c2c1 | inconclusive: 50.1 µM [inhibitor, partial curve, poor fit] | – |
| COc1ccc(/C(O)=C2/C(=O)C(=O)N(c3ccccn3)C2c2ccc(C(C)C)cc2)cc1 (configuration not stated) | – | inactive: 2.95% |
| Cn1cc([N+](=O)[O-])c(C(=O)N2CCN(Cc3ccc4c(c3)OCO4)CC2)n1 | inconclusive: 126 µM [inhibitor, single point] | – |
| Cc1cc(C)cc(C(=O)Nc2ccc3oc(C)nc3c2)c1 | inconclusive: 3.98 µM [inhibitor, full curve, poor fit] | – |
| Cc1ccc2nc(C)c(C(=O)/C=C/c3ccccc3C)c(-c3ccccc3)c2c1 | inconclusive: 44.7 µM [inhibitor, partial curve] | – |
| Cc1ncc2c(c1CNC(=O)c1sccc1S(N)(=O)=O)CCNC2 | inconclusive: 20 µM [inhibitor, partial curve, poor fit] | – |
| Cc1ccc(S(=O)(=O)N(CC(=O)NCc2ccccn2)c2ccc(Cl)cc2)cc1 | – | inactive: 7.37% |
| O=S(=O)(c1ccccc1)N1CCN(c2nc(-c3cccnc3)nc3ccccc23)CC1 | inactive | – |
| COc1cc(OC)c(C(=O)Nc2nnc(C(F)(F)F)s2)cc1OC | inconclusive: 39.8 µM [inhibitor, partial curve, poor fit] | – |
| CCC(=O)OC1=C(C(C)=O)N(C)S(=O)(=O)c2ccccc21 | inconclusive: 3.55 µM [inhibitor, partial curve, poor fit] | – |
| CCC(C)Sc1cccc(-c2nc3ccc(C)cn3c2NC2CCCCC2)c1 (configuration not stated) | inconclusive: 39.8 µM [inhibitor, partial curve] | – |
| COc1ccc(CC(=O)NC(C)C2CC3CCC2C3)cc1OC (configuration not stated) | – | inactive: -5.99% |
| COc1cncc(CN2CCC3(CC2)COCCN3C(=O)OCc2ccccc2)c1 | – | inactive: 34% [at 176 µM] |
| Cc1ccc(OCC(O)Cn2nc(-c3ccco3)oc2=O)cc1 (configuration not stated) | inconclusive: 35.5 µM [inhibitor, single point] | – |
| O=C(NCc1n[nH]c(=S)n1-c1ccccc1)c1ccc(S(=O)(=O)N2CCOCC2)cc1 | inconclusive: 56.2 µM [inhibitor, full curve, poor fit] | – |
| CC(C)CNS(=O)(=O)c1ccc(Br)cc1N1CCC[C@@H]1CO | inconclusive: 4.47 µM [inhibitor, full curve, poor fit] | – |
| O=C(CSc1nc2c(c(=O)n1-c1ccc(F)cc1)SCC2)N1CCCCC1 | inconclusive: 89.1 µM [inhibitor, partial curve, poor fit] | – |
| CCOC(=O)c1c(C)n(C)c2cc(Br)c(O)c(O)c12 | inconclusive: 1.58 µM [inhibitor, full curve, poor fit] | – |
| CN(C)CCNC(=O)c1cc2n(n1)CCCN(C(=O)[C@@H]1CCCN1)C2 | inconclusive: 10 µM [inhibitor, partial curve] | – |

Single records (already shown). Order of values: Potency	activity change, negative = inhibition
NC(=S)N/N=C/c1coc2ccc(Cl)cc2c1=O in the list: inconclusive: 4.47 µM [inhibitor, full curve]	–
COc1ccc(N2CCN(c3nc4cc(C)ccc4cc3C=O)CC2)cc1 in the list: –	inactive: -16.8%
CCN(Cc1ccco1)C(=O)c1cc2ccc(C(C)C)cc2[nH]1 in the list: inconclusive: 56.2 µM [inhibitor, single point]	–
CCC(C)Sc1cccc(-c2nc3ccc(C)cn3c2NC2CCCCC2)c1 (configuration not stated) in the list: inconclusive: 39.8 µM [inhibitor, partial curve]	–

Following part:

| SMILES | Potency | activity change, negative = inhibition |
| --- | --- | --- |
| COC(=O)C(c1ccccc1)C(CC(=O)c1ccccc1)c1ccccc1 (configuration not stated) | inconclusive: 126 µM [inhibitor, partial curve, poor fit] | – |
| COc1ccc(-c2nn(-c3ccccc3)cc2CN2CCC(C#N)CC2)c(F)c1 | inconclusive: 3.55 µM [inhibitor, full curve] | – |
| CCOCC(=O)Nc1nnc(C)s1 | inconclusive: 56.2 µM [inhibitor, partial curve, poor fit] | – |
| CCN(C[C@H]1N[C@@](C)(C(=O)OC)[C@H]2C(=O)N(Cc3ccccc3)C(=O)[C@@H]12)C(=O)c1ccc(C(C)(C)C)cc1 | inconclusive: 4.47 µM [inhibitor, full curve, poor fit] | – |
| O=C(Cc1ccccc1Cl)N[C@H]1CCOC[C@H]1C1CCOCC1 | – | inactive: 28% |
| CNC(=O)N1CCCCCCNC(=O)[C@@H]2CCCC[C@@H]21 | – | inactive: 30.3% |
| COC(=O)Cc1c(C)c2ccc(OCc3ccc(Cl)cc3)cc2oc1=O | inconclusive: 158 µM [inhibitor, partial curve, poor fit] | – |
| CC(=O)C1C(=O)C=C(c2cccs2)CC1c1ccccc1 (configuration not stated) | – | inactive: 1.09% |
| CCn1cc(C(=O)OCC(=O)Nc2c(C)cccc2C)c(=O)c2ccc(C)nc21 | inconclusive: 44.7 µM [inhibitor, partial curve, poor fit] | – |
| Cc1cc(C)cc(NC(=S)NCCSc2ccc(Cl)cc2)c1 | inconclusive: 39.8 µM [inhibitor, partial curve, poor fit] | – |
| O=C1CSc2ccc(C(=O)OCCOc3ccccc3)cc2N1 | – | inactive: -5.2% |
| CC(=O)N(C)c1ccc(N=Nc2c(C)[nH]n(-c3ccccc3)c2=O)cc1 | inconclusive: 28.2 µM [inhibitor, single point] | – |
| CC1(C)CC(=O)C(C(c2ccco2)C2C(=O)CC(C)(C)CC2=O)C(=O)C1 | inconclusive: 70.8 µM [inhibitor, partial curve, poor fit] | – |
| O=C(NC(=S)Nc1cccc(NC(=S)NC(=O)c2ccco2)n1)c1ccco1 | inconclusive: 0.398 µM [inhibitor, full curve, poor fit] | – |
| COc1ccc(-c2noc([C@@H]3CCCN3C(=O)c3ccc(OC)cc3C)n2)cc1 | inconclusive: 25.1 µM [inhibitor, full curve] | – |
| Cc1ccccc1CSCC(=O)NC(=O)NCc1ccco1 | inconclusive: 39.8 µM [inhibitor, partial curve] | – |
| Cc1c(-c2ccccc2)[nH]c2ccccc12 | inconclusive: 56.2 µM [inhibitor, partial curve, poor fit] | – |
| COc1ccc(NC(=O)C2(C)CCN2C(=O)c2ccc(C(C)(C)C)cc2)cc1OC (configuration not stated) | – | inactive: -2.28% |
| CCN(C(=O)Cc1ccccc1OC)c1nnc(-c2ccncc2)s1 | inconclusive: 50.1 µM [inhibitor, partial curve, poor fit] | – |
| O=C(NCc1ccccc1)c1[nH]c(C(F)(F)F)nc1-c1ccccc1 | inconclusive: 1.78 µM [inhibitor, full curve, poor fit] | – |
| Cc1ccc(N2C(=O)CC(N(O)C3CC(=O)N(c4ccc(C)cc4)C3=O)C2=O)cc1 (configuration not stated) | – | inactive: 13% |
